No constants are given. Whether binding was seen depends on the method and setting. Binding seen in cells or lysates may run through a third protein. Binding can be weak; no strength is given.
Molecular target: Flag-PKN3 WT (protein kinase N3) (human) (UniProt Q6P5Z2)
Assay: co-IP; Flag-PKN3 precipitated with Anti-Flag Affinity Gel from lysates of transfected MDA-MB-231 cells (1% Triton X-100 in TBS, 50 mM Tris-HCl pH 7.1, 150 mM NaCl), 3 h, 4 °C; GFP-ARHGAP18 variants detected by immunoblot

Chains of the proteins cited; added tags and fusions are not shown. Lines headed by an entry give the natural chain unless they say otherwise; changes in a name come on top.
UniProt Q6P5Z2: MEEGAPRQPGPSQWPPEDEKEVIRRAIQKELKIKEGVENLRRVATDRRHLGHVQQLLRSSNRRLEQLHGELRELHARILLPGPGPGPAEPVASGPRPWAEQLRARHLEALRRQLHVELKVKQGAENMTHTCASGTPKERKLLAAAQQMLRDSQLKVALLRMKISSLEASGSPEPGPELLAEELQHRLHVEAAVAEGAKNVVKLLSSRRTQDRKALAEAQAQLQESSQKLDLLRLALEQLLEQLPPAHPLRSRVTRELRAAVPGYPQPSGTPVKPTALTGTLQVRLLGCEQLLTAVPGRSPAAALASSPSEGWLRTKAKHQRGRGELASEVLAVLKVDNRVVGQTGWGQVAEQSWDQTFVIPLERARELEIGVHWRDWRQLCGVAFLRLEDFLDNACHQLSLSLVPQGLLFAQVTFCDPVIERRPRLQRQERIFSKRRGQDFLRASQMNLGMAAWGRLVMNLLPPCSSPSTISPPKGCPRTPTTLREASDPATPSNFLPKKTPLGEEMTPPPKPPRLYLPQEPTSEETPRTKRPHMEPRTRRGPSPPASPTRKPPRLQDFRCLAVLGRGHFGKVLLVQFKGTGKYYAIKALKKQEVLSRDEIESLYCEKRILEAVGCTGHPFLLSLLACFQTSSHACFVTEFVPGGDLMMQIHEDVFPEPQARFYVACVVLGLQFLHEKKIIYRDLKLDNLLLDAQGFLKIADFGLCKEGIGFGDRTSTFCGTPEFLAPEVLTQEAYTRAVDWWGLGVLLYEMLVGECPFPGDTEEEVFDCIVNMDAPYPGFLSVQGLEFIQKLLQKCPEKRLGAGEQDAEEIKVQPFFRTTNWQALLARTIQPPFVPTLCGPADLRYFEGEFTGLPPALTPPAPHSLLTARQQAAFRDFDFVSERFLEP
UniProt Q8N392: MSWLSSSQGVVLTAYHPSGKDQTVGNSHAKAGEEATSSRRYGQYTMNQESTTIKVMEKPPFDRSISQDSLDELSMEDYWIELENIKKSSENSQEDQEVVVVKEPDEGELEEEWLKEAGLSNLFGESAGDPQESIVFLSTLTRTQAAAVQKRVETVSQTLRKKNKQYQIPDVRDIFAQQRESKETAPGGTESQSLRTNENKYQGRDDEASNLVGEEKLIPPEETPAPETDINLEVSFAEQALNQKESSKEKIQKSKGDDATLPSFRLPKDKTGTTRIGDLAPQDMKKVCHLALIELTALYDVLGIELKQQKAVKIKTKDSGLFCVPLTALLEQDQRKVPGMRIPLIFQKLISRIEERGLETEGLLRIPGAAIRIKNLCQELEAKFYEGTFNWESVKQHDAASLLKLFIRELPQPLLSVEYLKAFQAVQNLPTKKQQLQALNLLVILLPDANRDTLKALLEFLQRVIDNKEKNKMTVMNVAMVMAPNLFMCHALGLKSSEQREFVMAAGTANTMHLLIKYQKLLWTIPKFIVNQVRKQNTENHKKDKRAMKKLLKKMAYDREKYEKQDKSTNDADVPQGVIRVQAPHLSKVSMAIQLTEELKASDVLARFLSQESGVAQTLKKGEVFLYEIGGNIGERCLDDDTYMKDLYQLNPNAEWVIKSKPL

binding | Substance
binds | GFP-ARHGAP18 ΔC525 (from UniProt Q8N392) (domain or fragment)
binds | GFP-ARHGAP18 ΔGAP (from UniProt Q8N392)

Reference: publication PMC7594087
